Measured data: PubChem BioAssay AID493246 (Drosophila RNAi Screening Center, 2011)
Purpose: 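Genome-wide search for dsRNAs that reduce cell number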 (primary screen). System: Drosophila Kc and S2R+ cells. Reagent: long dsRNA against Drosophila genes. Measured: 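Raw, unnormalised count of remaining cells in each well; per-plate z-scores of cell number underlie the calls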. Scale: Kc cell number and S2R+ cell number: higher = more cells remaining. Call rule: 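Counted as a hit if cell number falls by a z-score of at least 3 within its plate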.
In all, the deposit lists about 21,000 reagents; this is a random part of those with a known target gene and a result. Over the whole deposit, 429 (2%) were called active. 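Values are raw and not normalised between plates; calls rest on per-plate z-scores that were not deposited.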 A number with no mark means an inactive call. The numbers tell different reagents against one gene apart. A plus sign joins genes that one reagent is predicted to hit. The record does not give: the amount of reagent, the time to read-out.

no.	gene	reagent no.	Kc cell number, rep 1	Kc cell number, rep 2	S2R+ cell number, rep 1	S2R+ cell number, rep 2
1	CG11362	1	1.57e6	1.67e6	1.22e6	1.42e6
2	CG18745	1	1.53e6	1.61e6	1.29e6	1.44e6
3	su(sable)	1	1.44e6	1.44e6	9.91e5	1.12e6
4	CR31958	1	1.63e6	1.58e6	1.20e6	1.39e6
5	Synj	1	1.28e6	1.41e6	1.13e6	1.05e6
6	CG17724	1	1.35e6	1.32e6	1.02e6	8.28e5
7	PGRP-SB1	1	1.43e6	1.51e6	1.27e6	1.34e6
8	CG8026	1	1.16e6	1.47e6	9.23e5	1.03e6
9	CG8026	2	1.48e6	1.54e6	1.32e6	1.47e6
10	sit	1	1.63e6	1.62e6	9.87e5	1.15e6
11	CG33768	1	1.65e6	1.58e6	1.38e6	1.51e6
12	ena	1	4.48e5		7.63e5	
13	ena	2	1.20e6	1.32e6	9.86e5	9.65e5
14	Ir51b	1	1.45e6	1.41e6	9.87e5	1.14e6
15	epsilonCOP	1	1.19e6	1.35e6	4.62e5	5.12e5
16	Nup93-2	1	1.43e6	1.45e6	1.18e6	1.26e6
17	l(1)G0320	1	6.06e5		8.46e5	
18	CG8635	1	1.37e6	1.41e6	1.14e6	1.21e6
19	Lasp	1	1.30e6	1.46e6	1.15e6	1.31e6
20	Arpc4	1	1.51e6	1.46e6	1.15e6	1.32e6
21	CG18477 + CG31780	1	1.48e6	1.52e6	1.19e6	1.37e6
22	synr	1	1.81e6	1.91e6	1.32e6	1.51e6
23	Datp	1	1.49e6	1.49e6	9.91e5	1.08e6
24	Coa8	1	1.52e6	1.42e6	1.07e6	1.15e6
25	HP5	1	6.47e5		8.45e5	
26	CG11905	1	1.54e6	1.57e6	1.39e6	1.30e6
27	CG8664	1	1.56e6	1.53e6	1.23e6	1.32e6
28	CG6425	1	5.31e5		7.73e5	
29	Mst84Db	1	1.50e6	1.63e6	1.33e6	1.37e6
30	Mst84Db	2	1.46e6	1.61e6	1.26e6	1.33e6
31	CG8858	1	1.84e6	1.78e6	1.44e6	1.61e6
32	Gk2	1	1.46e6	1.44e6	1.12e6	1.11e6
33	Mrp5	1	1.28e6	1.22e6	1.13e6	1.25e6
34	Mrp5	2	1.30e6	1.28e6	1.13e6	1.22e6
35	Skeletor (retired record)	1	1.47e6	1.56e6	1.21e6	1.33e6
36	Skeletor (retired record)	2	1.67e6	1.72e6	1.45e6	1.53e6
37	Trf4-1	1	1.58e6	1.71e6	1.06e6	1.19e6
38	Syt4	1	1.56e6	1.69e6	1.31e6	1.37e6
39	Adgf-D	1	1.16e6	1.16e6	1.16e6	1.30e6
40	CG4681	1	1.57e6	1.65e6	1.27e6	1.42e6
41	Npc2f	1	1.54e6	1.57e6	1.16e6	1.19e6
42	CG10089	1	1.57e6	1.63e6	1.19e6	1.31e6
43	CG10089	2	1.63e6	1.67e6	1.47e6	1.59e6
44	PIG-Q	1	1.38e6	1.66e6	1.07e6	1.23e6
45	Gr64b	1	1.76e6	1.67e6	1.11e6	1.48e6
46	Prp31	1	1.63e6	1.69e6	1.14e6	1.19e6
47	CG3106	1	6.08e5		9.07e5	
48	Pp1-Y1	1	1.38e6	1.65e6	1.19e6	1.29e6
49	CG6310	1	1.39e6	1.32e6	1.22e6	1.30e6
50	CG42322	1	1.49e6	1.56e6	1.18e6	1.28e6
51	CG42322	2	1.25e6	1.23e6	1.07e6	1.15e6
52	CG42322	3	1.39e6	1.32e6	9.24e5	1.06e6
53	sut3	1	1.51e6	1.57e6	1.29e6	1.33e6
54	Achl	1	1.54e6	1.61e6	1.15e6	1.30e6
55	Spt-I	1	1.68e6	1.69e6	1.23e6	1.24e6
56	Tim17b2	1	1.46e6	1.53e6	1.20e6	1.37e6
57	wac	1	1.66e6	8.87e5	1.10e6	1.22e6
58	CG12691	1	1.60e6	1.58e6	1.01e6	1.18e6
59	tamo	1	1.45e6	1.50e6	1.15e6	1.25e6

7 entries from above, reformatted.
{"gene":"CG11362","reagent no.":1,"Kc cell number, rep 1":1.57e6,"Kc cell number, rep 2":1.67e6,"S2R+ cell number, rep 1":1.22e6,"S2R+ cell number, rep 2":1.42e6}
{"gene":"CG18745","reagent no.":1,"Kc cell number, rep 1":1.53e6,"Kc cell number, rep 2":1.61e6,"S2R+ cell number, rep 1":1.29e6,"S2R+ cell number, rep 2":1.44e6}
{"gene":"su(sable)","reagent no.":1,"Kc cell number, rep 1":1.44e6,"Kc cell number, rep 2":1.44e6,"S2R+ cell number, rep 1":9.91e5,"S2R+ cell number, rep 2":1.12e6}
{"gene":"CR31958","reagent no.":1,"Kc cell number, rep 1":1.63e6,"Kc cell number, rep 2":1.58e6,"S2R+ cell number, rep 1":1.20e6,"S2R+ cell number, rep 2":1.39e6}
{"gene":"Synj","reagent no.":1,"Kc cell number, rep 1":1.28e6,"Kc cell number, rep 2":1.41e6,"S2R+ cell number, rep 1":1.13e6,"S2R+ cell number, rep 2":1.05e6}
{"gene":"CG17724","reagent no.":1,"Kc cell number, rep 1":1.35e6,"Kc cell number, rep 2":1.32e6,"S2R+ cell number, rep 1":1.02e6,"S2R+ cell number, rep 2":8.28e5}
{"gene":"PGRP-SB1","reagent no.":1,"Kc cell number, rep 1":1.43e6,"Kc cell number, rep 2":1.51e6,"S2R+ cell number, rep 1":1.27e6,"S2R+ cell number, rep 2":1.34e6}
